From the supplement of paper PMC10849652
The other results are listed elsewhere or left out.

Chains of the proteins cited; added tags and fusions are not shown. Lines headed by an entry give the natural chain unless they say otherwise; changes in a name come on top.
UniProt Q9BZF3: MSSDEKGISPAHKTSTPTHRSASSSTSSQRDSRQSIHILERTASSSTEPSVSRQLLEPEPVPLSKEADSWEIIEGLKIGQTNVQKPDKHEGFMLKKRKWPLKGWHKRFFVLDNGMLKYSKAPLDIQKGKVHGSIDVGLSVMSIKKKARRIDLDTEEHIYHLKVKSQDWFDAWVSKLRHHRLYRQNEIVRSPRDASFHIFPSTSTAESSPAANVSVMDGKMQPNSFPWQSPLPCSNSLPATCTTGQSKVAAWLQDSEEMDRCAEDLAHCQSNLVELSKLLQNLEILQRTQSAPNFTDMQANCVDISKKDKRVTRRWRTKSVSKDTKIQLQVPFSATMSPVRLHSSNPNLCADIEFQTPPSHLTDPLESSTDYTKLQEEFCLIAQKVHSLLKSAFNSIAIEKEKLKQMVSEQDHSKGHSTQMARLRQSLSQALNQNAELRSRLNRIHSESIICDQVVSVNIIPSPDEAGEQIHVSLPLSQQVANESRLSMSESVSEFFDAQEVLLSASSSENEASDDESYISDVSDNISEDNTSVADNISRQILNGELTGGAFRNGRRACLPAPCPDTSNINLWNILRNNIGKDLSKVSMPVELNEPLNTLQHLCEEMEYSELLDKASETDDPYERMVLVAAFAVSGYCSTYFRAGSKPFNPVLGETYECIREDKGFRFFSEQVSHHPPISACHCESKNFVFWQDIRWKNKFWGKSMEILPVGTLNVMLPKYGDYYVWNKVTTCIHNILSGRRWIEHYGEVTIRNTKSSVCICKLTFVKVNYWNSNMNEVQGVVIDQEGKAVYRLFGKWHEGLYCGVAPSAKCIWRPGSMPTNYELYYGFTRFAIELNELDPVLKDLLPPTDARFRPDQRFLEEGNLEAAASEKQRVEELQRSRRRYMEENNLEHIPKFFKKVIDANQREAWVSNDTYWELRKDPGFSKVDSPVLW
UniProt Q96SU4: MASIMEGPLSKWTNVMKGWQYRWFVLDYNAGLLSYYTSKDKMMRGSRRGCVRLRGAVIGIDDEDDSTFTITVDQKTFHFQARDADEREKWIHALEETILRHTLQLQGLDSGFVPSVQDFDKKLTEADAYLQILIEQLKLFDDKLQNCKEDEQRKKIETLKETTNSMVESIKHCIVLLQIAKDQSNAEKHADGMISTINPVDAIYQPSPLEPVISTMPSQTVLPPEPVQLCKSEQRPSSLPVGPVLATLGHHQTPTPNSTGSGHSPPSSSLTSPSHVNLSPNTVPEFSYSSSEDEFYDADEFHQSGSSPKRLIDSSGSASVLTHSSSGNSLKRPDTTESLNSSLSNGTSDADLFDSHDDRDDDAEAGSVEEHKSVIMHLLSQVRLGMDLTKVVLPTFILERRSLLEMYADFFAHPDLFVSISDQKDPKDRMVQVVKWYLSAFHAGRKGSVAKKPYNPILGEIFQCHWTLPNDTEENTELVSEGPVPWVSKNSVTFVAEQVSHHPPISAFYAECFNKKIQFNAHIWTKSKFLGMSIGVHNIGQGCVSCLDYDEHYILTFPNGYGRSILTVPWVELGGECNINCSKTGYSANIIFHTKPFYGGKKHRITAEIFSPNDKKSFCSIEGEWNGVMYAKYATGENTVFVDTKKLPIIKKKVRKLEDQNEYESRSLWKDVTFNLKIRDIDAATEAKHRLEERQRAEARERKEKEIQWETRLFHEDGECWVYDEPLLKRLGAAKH
UniProt P11940, whole entry, looked up: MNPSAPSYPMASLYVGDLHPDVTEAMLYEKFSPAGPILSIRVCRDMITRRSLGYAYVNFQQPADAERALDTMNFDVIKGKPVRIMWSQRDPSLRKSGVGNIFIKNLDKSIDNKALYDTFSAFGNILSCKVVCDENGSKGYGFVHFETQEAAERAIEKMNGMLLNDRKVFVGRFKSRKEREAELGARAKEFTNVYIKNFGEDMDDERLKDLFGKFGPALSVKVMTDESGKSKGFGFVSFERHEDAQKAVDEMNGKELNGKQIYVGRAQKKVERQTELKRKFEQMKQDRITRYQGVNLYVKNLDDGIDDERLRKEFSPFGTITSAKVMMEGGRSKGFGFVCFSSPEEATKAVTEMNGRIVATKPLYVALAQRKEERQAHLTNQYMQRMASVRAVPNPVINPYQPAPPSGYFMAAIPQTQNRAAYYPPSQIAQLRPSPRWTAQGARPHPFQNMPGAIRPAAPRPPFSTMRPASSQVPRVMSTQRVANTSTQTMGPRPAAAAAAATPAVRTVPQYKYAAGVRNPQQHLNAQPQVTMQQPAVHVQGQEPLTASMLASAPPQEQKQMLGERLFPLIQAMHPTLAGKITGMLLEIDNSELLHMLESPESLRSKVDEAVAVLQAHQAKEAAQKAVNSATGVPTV
UniProt O15381: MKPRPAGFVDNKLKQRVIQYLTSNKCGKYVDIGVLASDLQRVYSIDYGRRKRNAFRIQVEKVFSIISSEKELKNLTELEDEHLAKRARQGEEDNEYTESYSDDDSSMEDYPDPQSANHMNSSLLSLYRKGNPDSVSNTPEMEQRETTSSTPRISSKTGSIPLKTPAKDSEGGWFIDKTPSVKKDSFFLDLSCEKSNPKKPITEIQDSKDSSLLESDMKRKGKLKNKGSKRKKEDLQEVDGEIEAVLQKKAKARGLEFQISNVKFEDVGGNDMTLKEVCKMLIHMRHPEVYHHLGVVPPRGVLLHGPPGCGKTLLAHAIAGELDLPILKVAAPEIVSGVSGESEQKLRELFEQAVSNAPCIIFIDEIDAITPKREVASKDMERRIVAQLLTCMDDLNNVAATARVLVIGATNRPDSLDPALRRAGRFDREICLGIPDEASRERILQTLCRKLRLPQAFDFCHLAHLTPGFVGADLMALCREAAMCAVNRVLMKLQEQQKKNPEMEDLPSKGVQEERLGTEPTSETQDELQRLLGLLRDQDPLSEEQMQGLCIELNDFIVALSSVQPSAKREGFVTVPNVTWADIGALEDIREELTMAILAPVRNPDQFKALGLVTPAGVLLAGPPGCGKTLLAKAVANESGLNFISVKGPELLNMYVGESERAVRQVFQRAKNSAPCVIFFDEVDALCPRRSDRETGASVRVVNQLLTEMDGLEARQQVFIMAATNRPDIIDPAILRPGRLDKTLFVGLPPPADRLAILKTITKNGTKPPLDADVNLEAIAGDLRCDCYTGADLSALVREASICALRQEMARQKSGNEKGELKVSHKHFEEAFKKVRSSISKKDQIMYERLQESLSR
UniProt Q96FW1, whole entry, looked up: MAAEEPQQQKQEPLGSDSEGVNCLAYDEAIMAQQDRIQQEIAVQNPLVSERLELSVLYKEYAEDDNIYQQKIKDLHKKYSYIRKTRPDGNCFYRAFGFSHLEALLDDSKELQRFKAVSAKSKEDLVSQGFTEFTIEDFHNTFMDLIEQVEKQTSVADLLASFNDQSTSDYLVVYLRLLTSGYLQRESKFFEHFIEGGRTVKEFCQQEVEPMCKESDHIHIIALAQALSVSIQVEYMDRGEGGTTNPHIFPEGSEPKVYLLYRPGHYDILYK
UniProt Q9NX40: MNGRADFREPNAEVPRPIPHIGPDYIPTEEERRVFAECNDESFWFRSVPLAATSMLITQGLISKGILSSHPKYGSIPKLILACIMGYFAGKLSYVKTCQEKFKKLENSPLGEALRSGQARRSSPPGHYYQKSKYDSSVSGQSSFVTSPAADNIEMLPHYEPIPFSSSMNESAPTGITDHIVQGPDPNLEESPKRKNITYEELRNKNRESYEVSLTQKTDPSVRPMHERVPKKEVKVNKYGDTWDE
UniProt Q9H6K4: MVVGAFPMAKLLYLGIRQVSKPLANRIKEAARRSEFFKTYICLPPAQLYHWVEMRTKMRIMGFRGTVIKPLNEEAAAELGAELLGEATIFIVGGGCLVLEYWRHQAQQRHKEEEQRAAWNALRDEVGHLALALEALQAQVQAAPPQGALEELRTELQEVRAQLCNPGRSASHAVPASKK
UniProt Q6VY07, whole entry, looked up: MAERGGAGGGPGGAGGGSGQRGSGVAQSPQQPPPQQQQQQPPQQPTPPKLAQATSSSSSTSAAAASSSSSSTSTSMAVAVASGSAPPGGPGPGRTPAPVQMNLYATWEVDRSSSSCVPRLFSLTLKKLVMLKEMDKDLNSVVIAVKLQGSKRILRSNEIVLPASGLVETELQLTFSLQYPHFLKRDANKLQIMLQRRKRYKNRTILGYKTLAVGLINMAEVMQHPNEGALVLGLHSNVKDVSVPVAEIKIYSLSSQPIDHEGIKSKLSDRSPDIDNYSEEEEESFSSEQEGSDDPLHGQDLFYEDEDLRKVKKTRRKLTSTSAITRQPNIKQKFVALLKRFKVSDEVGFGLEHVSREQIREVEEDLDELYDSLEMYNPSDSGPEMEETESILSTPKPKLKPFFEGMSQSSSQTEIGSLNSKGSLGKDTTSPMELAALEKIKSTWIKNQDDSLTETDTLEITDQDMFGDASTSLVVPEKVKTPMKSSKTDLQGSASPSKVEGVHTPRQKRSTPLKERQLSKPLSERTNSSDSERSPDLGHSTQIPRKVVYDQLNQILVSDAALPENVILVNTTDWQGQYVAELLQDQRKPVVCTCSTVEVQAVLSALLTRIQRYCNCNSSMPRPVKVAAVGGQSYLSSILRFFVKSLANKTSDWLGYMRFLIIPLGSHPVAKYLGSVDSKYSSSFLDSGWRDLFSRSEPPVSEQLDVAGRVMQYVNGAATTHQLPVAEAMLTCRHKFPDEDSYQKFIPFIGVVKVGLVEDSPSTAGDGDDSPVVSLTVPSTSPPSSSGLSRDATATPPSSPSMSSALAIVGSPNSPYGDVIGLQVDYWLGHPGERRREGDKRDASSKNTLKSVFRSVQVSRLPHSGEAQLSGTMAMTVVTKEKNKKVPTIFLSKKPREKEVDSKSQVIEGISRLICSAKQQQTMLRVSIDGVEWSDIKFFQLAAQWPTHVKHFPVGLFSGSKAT
UniProt Q96BN8, whole entry, looked up: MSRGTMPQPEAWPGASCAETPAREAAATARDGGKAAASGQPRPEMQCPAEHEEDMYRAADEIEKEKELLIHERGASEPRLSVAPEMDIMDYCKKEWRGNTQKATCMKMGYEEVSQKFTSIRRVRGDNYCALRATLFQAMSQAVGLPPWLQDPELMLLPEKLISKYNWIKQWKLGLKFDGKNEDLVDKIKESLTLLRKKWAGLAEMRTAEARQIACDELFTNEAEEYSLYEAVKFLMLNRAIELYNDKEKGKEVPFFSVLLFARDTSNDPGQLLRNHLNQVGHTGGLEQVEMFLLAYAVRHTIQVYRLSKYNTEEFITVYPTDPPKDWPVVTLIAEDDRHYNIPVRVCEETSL
UniProt P07237: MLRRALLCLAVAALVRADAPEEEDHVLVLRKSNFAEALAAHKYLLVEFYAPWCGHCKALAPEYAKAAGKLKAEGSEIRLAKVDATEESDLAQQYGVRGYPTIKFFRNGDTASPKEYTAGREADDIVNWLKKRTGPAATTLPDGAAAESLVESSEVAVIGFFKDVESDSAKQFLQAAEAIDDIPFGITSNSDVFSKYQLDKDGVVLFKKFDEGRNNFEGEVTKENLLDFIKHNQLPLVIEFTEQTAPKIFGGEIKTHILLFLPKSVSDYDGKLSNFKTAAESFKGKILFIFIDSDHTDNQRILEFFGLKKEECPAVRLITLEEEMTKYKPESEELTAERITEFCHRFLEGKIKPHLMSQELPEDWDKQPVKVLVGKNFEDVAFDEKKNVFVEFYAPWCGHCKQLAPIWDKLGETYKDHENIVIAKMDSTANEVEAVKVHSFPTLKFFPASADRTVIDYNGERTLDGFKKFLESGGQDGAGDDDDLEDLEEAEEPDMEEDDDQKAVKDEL
UniProt Q9BZF1: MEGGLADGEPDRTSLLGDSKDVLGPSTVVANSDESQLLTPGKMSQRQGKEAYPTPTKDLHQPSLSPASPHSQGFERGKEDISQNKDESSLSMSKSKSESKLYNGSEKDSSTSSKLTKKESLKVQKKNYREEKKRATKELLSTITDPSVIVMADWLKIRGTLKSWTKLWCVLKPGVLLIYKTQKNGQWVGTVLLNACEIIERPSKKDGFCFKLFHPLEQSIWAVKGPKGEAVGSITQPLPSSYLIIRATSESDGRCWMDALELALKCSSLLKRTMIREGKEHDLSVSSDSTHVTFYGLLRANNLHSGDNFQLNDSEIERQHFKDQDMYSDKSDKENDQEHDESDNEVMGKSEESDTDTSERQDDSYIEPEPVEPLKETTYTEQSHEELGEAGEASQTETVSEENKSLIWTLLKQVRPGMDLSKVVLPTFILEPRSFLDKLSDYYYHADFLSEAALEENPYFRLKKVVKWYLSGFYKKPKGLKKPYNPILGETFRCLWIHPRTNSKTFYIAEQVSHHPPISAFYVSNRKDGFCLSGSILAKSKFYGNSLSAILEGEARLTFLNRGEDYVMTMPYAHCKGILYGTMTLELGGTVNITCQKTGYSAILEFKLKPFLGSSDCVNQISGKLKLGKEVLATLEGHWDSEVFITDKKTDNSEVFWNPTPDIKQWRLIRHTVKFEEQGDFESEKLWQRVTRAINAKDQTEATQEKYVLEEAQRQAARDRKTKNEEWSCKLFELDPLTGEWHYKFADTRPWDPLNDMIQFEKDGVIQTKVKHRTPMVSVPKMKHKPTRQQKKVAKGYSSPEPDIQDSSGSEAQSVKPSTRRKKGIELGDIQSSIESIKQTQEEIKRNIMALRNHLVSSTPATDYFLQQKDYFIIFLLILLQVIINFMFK

How the values were obtained:
Assay in all cases: log2 fold change, soluble protein after heating vs DMSO (PISA); higher = thermal stabilisation; K562 lysate, 10 uM; active = over 0.2 and 3.5 SD of the protein, either way, in both replicates (recomputed)
[1] = compound: NCC(=O)Nc1ccc(-n2nc(C(F)(F)F)cc2-c2ccc3c(ccc4ccccc43)c2)cc1
Summary of the method: (§1)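 A 30 min treatment with 10 μM compound was applied to crude K562 extract at 1 mg/mL protein in PBS pH 7.4 with 1 mM MgCl2. Heating for 3 min spanned 48°C-58°C, after which aliquots were pooled, adjusted to 0.5% NP-40 at 4°C and spun at 21,000xg for 90 min. TMTpro 16plex LC-MS/MS of the supernatant, with channel sums equalised, gave values recorded as log-two fold change in thermal stability against solvent controls, from duplicates.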

vorinostat = compound: O=C(CCCCCCC(=O)Nc1ccccc1)NO [vorinostat]
Summary of the method: as §1

silmitasertib = compound: O=C(O)c1ccc2c(c1)nc(Nc1cccc(Cl)c1)c1ccncc12 [silmitasertib]
Summary of the method: as §1

[2] = compound: O=C1NC(=O)C(c2cnc3ccccn23)=C1c1cn2c3c(cc(F)cc13)CN(C(=O)N1CCCCC1)CC2
Summary of the method: as §1

entospletinib = compound: c1cn2cc(-c3ccc4cn[nH]c4c3)nc(Nc3ccc(N4CCOCC4)cc3)c2n1 [entospletinib]
Summary of the method: as §1

Target	log2 fold change [1]	log2 fold change (vorinostat)	log2 fold change (silmitasertib)	log2 fold change [2]	log2 fold change (entospletinib)
NXT1 (UniProt Q9UKK6)	inactive: 0.051	inactive: -0.128	inactive: -0.057		
OGFOD1 (UniProt Q8N543)	inactive: -0.015	inactive: -0.02	inactive: 0.039	inactive: -0.004	inactive: 0.002
OTUD5 isoform 5 (UniProt Q96G74)	inactive: 0.002	inactive: 0.03	inactive: -0.034	inactive: 0.017	inactive: 0.028
P4HA2 (UniProt O15460)	inactive: 0.007	inactive: -0.016	inactive: 0.011	inactive: 0.014	inactive: 0
OSBPL6 isoform 5 (UniProt Q9BZF3)	inactive: -0.082	inactive: -0.195	inactive: 0.25	inactive: -0.026	inactive: 0.113
ORC5 (UniProt O43913)	inactive: 0.023	active: -0.377	inactive: 0.072	inactive: 0.011	inactive: 0.066
PAGE1 (UniProt O75459)	inactive: 0.028	inactive: 0.094	inactive: 0.036	inactive: -0.044	inactive: -0.068
PAK1 (UniProt Q13153)	inactive: 0.008	inactive: 0.13	inactive: -0.046	inactive: -0.001	inactive: 0.051
OXA1L (UniProt Q15070)	inactive: -0.043	inactive: 0.06	inactive: 0.017	inactive: -0.002	inactive: -0.003
PANK4 (UniProt Q9NVE7)	inactive: 0.012	active: -0.423	inactive: -0.03	inactive: 0.055	inactive: 0.035
P3H3 (UniProt Q8IVL6)	inactive: 0.018	inactive: 0.066	inactive: -0.073		
NUP205 (UniProt Q92621)	inactive: 0.003	active: -0.335	inactive: 0.037	inactive: 0.001	inactive: 0.005
P2RX4 isoform 2 (UniProt Q99571)	inactive: 0.203	inactive: 0.083	inactive: 0.004	inactive: -0.001	inactive: -0.025
NUP62 (UniProt P37198)	inactive: -0.024	inactive: 0.031	inactive: -0.004	inactive: 0.014	inactive: 0.021
OSBPL9 isoform 2 (UniProt Q96SU4)	inactive: 0.012	inactive: -0.078	inactive: 0.042	inactive: 0.023	inactive: -0.048
OSBP (UniProt P22059)	inactive: 0.041	inactive: 0.108	inactive: -0.121	inactive: -0.015	inactive: -0.1
ORMDL1 (UniProt Q9P0S3)	inactive: 0.162	inactive: 0.058	inactive: -0.003	inactive: -0.034	
OGT (UniProt O15294)	inactive: 0.002	active: -0.42	inactive: 0.035	inactive: 0.045	inactive: 0.021
PAICS (UniProt E9PBS1)	inactive: 0.022	inactive: -0.057	inactive: 0.08	inactive: 0.186	inactive: 0.02
PABPC1 (UniProt P11940)	inactive: -0.012	inactive: 0.037	inactive: 0.001	inactive: -0.045	inactive: 0.01
NUP93 (UniProt Q8N1F7)	inactive: -0.011	active: -0.242	inactive: 0.067	inactive: 0.015	inactive: 0.022
NVL (UniProt O15381)	inactive: 0.119	inactive: -0.122	inactive: 0.091	inactive: 0.001	
OLA1 (UniProt Q9NTK5)	inactive: 0.03	active: -0.31	inactive: 0.041	inactive: 0.004	inactive: 0.043
OTUB1 (UniProt Q96FW1)	inactive: -0.033	inactive: 0.014	inactive: -0.018	inactive: -0.015	inactive: -0.015
PAIP1 (UniProt Q9H074)	inactive: -0.018	inactive: 0.254	inactive: -0.047	inactive: 0.007	inactive: -0.003
OSBPL2 (UniProt Q9H1P3)	inactive: -0.009	inactive: -0.189	inactive: 0.032	inactive: -0.025	inactive: -0.015
NUTF2 (UniProt P61970)	inactive: -0.133	inactive: 0.118	inactive: 0.002	inactive: 0.03	inactive: -0.003

Target	log2 fold change [1]	log2 fold change (vorinostat)	log2 fold change (silmitasertib)	log2 fold change [2]	log2 fold change (entospletinib)
PAIP2 (UniProt Q9BPZ3)	inactive: 0.033	inactive: 0.054	inactive: -0.052	inactive: -0.025	inactive: -0.027
PAN2 isoform 2 (UniProt Q504Q3)	inactive: 0.11	inactive: -0.097	inactive: 0.038	inactive: -0.056	inactive: 0.038
PAFAH1B2 (UniProt P68402)	inactive: -0.002	inactive: 0.026	inactive: -0.031	inactive: -0.005	inactive: -0.074
PAAF1 (UniProt Q9BRP4)	inactive: -0.021	inactive: 0.089	inactive: 0.034	inactive: 0.002	inactive: 0.019
OCIAD1 (UniProt Q9NX40)	inactive: -0.033	inactive: 0.139	inactive: -0.016	inactive: 0.005	inactive: -0.006
NUSAP1 (UniProt Q9BXS6)	inactive: 0.01	inactive: 0.101	inactive: -0.036	inactive: -0.003	inactive: -0.001
OPA3 (UniProt Q9H6K4)	inactive: -0.038	inactive: 0.052	inactive: 0.036	inactive: 0.066	inactive: 0.081
PALM (UniProt O75781)	inactive: 0.023	inactive: 0.153	inactive: -0.032	inactive: -0.022	inactive: -0.043
NUP98 (UniProt P52948)	inactive: 0.021	active: -0.231	inactive: 0.001	inactive: 0.001	inactive: -0.012
ORC6 (UniProt Q9Y5N6)	inactive: -0.01	inactive: -0.241	inactive: -0.036	inactive: -0.011	inactive: 0.044
OPLAH (UniProt O14841)	inactive: -0.035	inactive: -0.216	inactive: 0.014	inactive: -0.089	inactive: -0.023
NUP160 (UniProt Q12769)	inactive: -0.036	active: -0.291	inactive: 0.082	inactive: 0.022	inactive: 0.009
OSTC isoform 2 (UniProt Q9NRP0)	inactive: -0.013	inactive: -0.045	inactive: 0.069	inactive: 0.063	inactive: 0.023
PACS1 (UniProt Q6VY07)	inactive: -0.034	inactive: 0.005	inactive: 0.005	inactive: -0.026	inactive: -0.018
PAPOLA (UniProt P51003)	inactive: 0.028	inactive: -0.005	inactive: -0.011	inactive: -0.054	inactive: 0.006
OTULIN (UniProt Q96BN8)	inactive: -0.022	inactive: -0.067	inactive: 0.058	inactive: 0.051	inactive: 0.009
PALM3 (UniProt A6NDB9)	inactive: 0.02	inactive: 0.153	inactive: 0.05	inactive: 0.021	inactive: -0.009
P4HA1 isoform 2 (UniProt P13674)	inactive: 0.09	inactive: 0.079	inactive: -0.053	inactive: -0.024	inactive: -0.033
PAPSS1 (UniProt O43252)	inactive: -0.006	inactive: -0.124	inactive: 0.031	inactive: 0.016	inactive: -0.003
PAK2 (UniProt Q13177)	inactive: -0.004	inactive: 0.1	inactive: -0.013	inactive: -0.02	inactive: 0.002
PARD3 (UniProt Q8TEW0)	inactive: -0.071	inactive: -0.314	inactive: -0.118	inactive: -0.081	inactive: -0.003
P4HB (UniProt P07237)	inactive: 0.001	inactive: 0.102	inactive: 0.013	inactive: -0.019	inactive: 0.018
PAFAH1B1 (UniProt P43034)	inactive: 0	inactive: 0.074	inactive: -0.006	inactive: -0.025	inactive: 0.019
NUP37 (UniProt Q8NFH4)	inactive: 0.015	inactive: 0.004	inactive: 0.011	inactive: -0.064	inactive: -0.027
OSBPL8 (UniProt Q9BZF1)	inactive: -0.007	inactive: -0.108	inactive: 0.007	inactive: -0.028	inactive: -0.095
OPA1 isoform 2 (UniProt O60313)	inactive: 0.002	inactive: 0.014	inactive: 0.027	inactive: 0.009	inactive: -0.004
PAICS (UniProt P22234)	inactive: 0.001	inactive: 0.141	inactive: 0.013	inactive: 0.004	inactive: 0.016

Random excerpt: two records from the list.
Target	log2 fold change [1]	log2 fold change (vorinostat)	log2 fold change (silmitasertib)	log2 fold change [2]	log2 fold change (entospletinib)
OSTC isoform 2 (UniProt Q9NRP0)	inactive: -0.013	inactive: -0.045	inactive: 0.069	inactive: 0.063	inactive: 0.023
OPA3 (UniProt Q9H6K4)	inactive: -0.038	inactive: 0.052	inactive: 0.036	inactive: 0.066	inactive: 0.081
